This series deals with A549, H1299, H1975 human lung cancer lines and BEAS-2B normal cell line, each cultured alone. As to the kind of experiment: VOCs headspace analysis (ITEX GC-MS) of mono-culture groups (Format-1), bulk cell samples 1×10^4 cells. Set-up: key to Category (VOC increased or decreased relative to the control): ↑: Increased; ↓: decreased; ↑*: <0.01; ↑**: <0.001. In kind it is cell-based. As to conditions: mono-culture groups (Format-1), averaged peak area (n = 3).

The amount applied is not stated for every result.

Take `O=C1CCCCC1` [Cyclohexanone]: the “Category (VOC increased or decreased relative to the control)” value (72 h incubation) is “↓”. As to `O=Cc1ccccc1` [Benzaldehyde], the “Category (VOC increased or decreased relative to the control)” value was “↑” (24 h incubation) and “↑” (72 h incubation).

With `CCCCC(C)=O` [2-Hexanone], the “Category (VOC increased or decreased relative to the control)” value (48 h incubation) was “↑”. Turning to `CCC(C)=O` [2-Butanone], under “48 h incubation”, the “Category (VOC increased or decreased relative to the control)” value is “↑* (↑*: <0.01)”.

Turning to `C=C(C)CCC(C)CC` (stereo not shown) [2,5-Dimethyl-1-heptene], the “Category (VOC increased or decreased relative to the control)” value (24 h incubation) was “↓”. Same read-out and setting: the value for 3-Methyl-3-buten was “↑”. `CC(CC(C)(C)C)CC(C)(C)C` [Heptane, 2,2,4,6,6-pentamethyl-]: the “Category (VOC increased or decreased relative to the control)” value is, setting by setting: (24 h incubation) “↑* (↑*: <0.01)”; (72 h incubation) “↓”. In the same order, the values of `CCCCC(C)(CCC)CCCC` [Nonane, 5-methyl-5-propyl-] are “↑” and “↓”.

Take `CC(C)CO` [2-Methyl-1-propanol]: the “Category (VOC increased or decreased relative to the control)” value (48 h incubation) was “↑”. Take `CC(C)(O)CCC(C)(C)O` [2,5-Dimethyl-2,5-hexanediol]: the “Category (VOC increased or decreased relative to the control)” value (24 h incubation) was “↓”. For the compound `C=C(C)CC(C)CCC` (stereo not shown) [2,4-Dimethyl-1-heptane], the “Category (VOC increased or decreased relative to the control)” value is reported as “↑” (24 h incubation) and “↑” (72 h incubation). `CC#N` [Acetonitrile]: the “Category (VOC increased or decreased relative to the control)” value (72 h incubation) is “↑* (↑*: <0.01)”. Regarding `C=C(C)CCO` [3-Methyl-3-buten-1-ol], the “Category (VOC increased or decreased relative to the control)” value runs as follows: (24 h incubation) “↑”; (48 h incubation) “↑”. As for `CC(=O)c1ccccc1` [Acetophenone], the “Category (VOC increased or decreased relative to the control)” value (24 h incubation) is “↑* (↑*: <0.01)” and the “Category (VOC increased or decreased relative to the control)” value (48 h incubation) was “↑* (↑*: <0.01)”. In the case of `CC1=CC(=O)CC(C)(C)C1` [Isophorone], for the setting “72 h incubation”, the “Category (VOC increased or decreased relative to the control)” value is “↓”. As to `CC(=O)CCC(C)=O` [Acetonylacetone], the “Category (VOC increased or decreased relative to the control)” value (48 h incubation) is listed as “↑* (↑*: <0.01)”. As to `CC(C)CC=O` [Butanal, 3-methyl-], the “Category (VOC increased or decreased relative to the control)” value is, setting by setting: (24 h incubation) “↑* (↑*: <0.01)”; (72 h incubation) “↑* (↑*: <0.01)”; (72 h incubation, listed as 3-methyl butanal) “↑”.

For the origin of these results see patent US20260079169A1, “VOLATILE ORGANIC COMPOUNDS AS MARKERS FOR CELLULAR COMMUNICATION” (Technion Research and Development Foundation Limited, priority 2020, published 2026).
